According to the supplement of paper PMC4604168 (melanoma cell lines):
The other results are listed elsewhere or left out. Single values are uncertain, as repeats are few or missing.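 The apoptosis fraction was the count of cleaved-PARP antibody-stained nuclei relative to all DNA-stained nuclei, imaged in 1,536-well plates. Screening doses were set so most cells survived, and baseline and induced cleaved-PARP levels vary greatly across cell lines.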

Experiments:
Experiment in all cases: cleaved PARP positive nuclei fraction relative to DMSO control; melanoma cells; higher = more apoptosis
Conditions in all cases: library dose: low library concentration; 72 h
[1] = test system: MZ2-MEL
[2] = test system: MeWo
[3] = test system: RPMI7951
[4] = test system: RVH-421
[5] = test system: SkMel28
[6] = test system: SkMel30
[7] = test system: SkMel5
[8] = test system: UACC257
[9] = test system: UACC62

Structure (SMILES)	cleaved PARP positive nuclei fraction [1]	cleaved PARP positive nuclei fraction [2]	cleaved PARP positive nuclei fraction [3]	cleaved PARP positive nuclei fraction [4]	cleaved PARP positive nuclei fraction [5]	cleaved PARP positive nuclei fraction [6]	cleaved PARP positive nuclei fraction [7]	cleaved PARP positive nuclei fraction [8]	cleaved PARP positive nuclei fraction [9]
Cc1cc(N2CCOCC2)cc2[nH]c(-c3c(NC[C@@H](O)c4cccc(Cl)c4)cc[nH]c3=O)nc12 + C/C(O)=C(\C#N)C(=O)Nc1cc(Br)ccc1Br [LFM-A13] (first compound 0.2 µM, partner dose 2 µM)	117%	351%	43.4%	46.8%	257%	815%	60.8%	73.2%	94.7%
Cc1cc(SCc2sc(-c3ccc(C(F)(F)F)c(F)c3)nc2C)ccc1OCC(=O)O + O=C1NC(=O)/C(=C/c2ccc(-c3ccc(F)cc3O)o2)S1 [AS252424] (first compound 2 µM, partner dose 1 µM)	56.4%	114%	79.9%	119%	85.2%	54.4%	186%	282%	173%
COc1cc2ncnc(Nc3ccc(Oc4ccccc4)cc3)c2cc1OC + C/C(O)=C(\C#N)C(=O)Nc1cc(Br)ccc1Br [LFM-A13] (first compound 2 µM, partner dose 2 µM)	83.8%	163%	42.5%	33.7%	156%	158%	60.1%	86.3%	96.2%
C/C(O)=C(\C#N)C(=O)Nc1cc(Br)ccc1Br + CCCCCCCCCCCC1=C(O)C(=O)C=C(O)C1=O [Embelin] (first compound 2 µM, partner dose 1.2 µM)	51.8%	64.1%	82.2%	25.7%	147%	17.1%	123%	147%	140%
Cc1ccc(NC(=O)c2cccc(N(C)C)c2)cc1NC(=O)c1ccc(O)cc1 + C/C(O)=C(\C#N)C(=O)Nc1cc(Br)ccc1Br [LFM-A13] (first compound 2 µM, partner dose 2 µM)	36.9%	53.8%	42.8%	181%	86.3%	53.1%	60.8%	219%	66.6%
C#Cc1cccc(Nc2ncnc3cc(OCCOC)c(OCCOC)cc23)c1 [erlotinib] + O=C(Oc1ccc([N+](=O)[O-])cc1)N1CCC(C(O)(c2ccc3c(c2)OCO3)c2ccc3c(c2)OCO3)CC1 [JZL184] (first compound 0.8 µM, partner dose 1 µM)	184%	107%	85.6%	144%	192%	69.8%	172%	178%	194%
C/C(O)=C(\C#N)C(=O)Nc1cc(Br)ccc1Br + O=C(Oc1ccc([N+](=O)[O-])cc1)N1CCC(C(O)(c2ccc3c(c2)OCO3)c2ccc3c(c2)OCO3)CC1 [JZL184] (first compound 2 µM, partner dose 1 µM)	159%	53.9%	89.3%	61.5%	178%	144%	101%	70.6%	70.3%
C[C@]12O[C@H](C[C@]1(O)CO)n1c3ccccc3c3c4c(c5c6ccccc6n2c5c31)CNC4=O [Lestaurtinib] + COc1cc(Nc2ncc(F)c(Nc3ccc4c(n3)NC(=O)C(C)(C)O4)n2)cc(OC)c1OC [Tamatinib] (first compound 0.004 µM, partner dose 0.4 µM)	125%	211%	156%	49.7%	66.7%	144%	53.8%	317%	51.7%
C[C@]1(c2nc3c(C(N)=O)cccc3[nH]2)CCCN1 [Veliparib] + Cc1cc(SCc2sc(-c3ccc(C(F)(F)F)c(F)c3)nc2C)ccc1OCC(=O)O [GW0742] (first compound 1.4 µM, partner dose 2 µM)	45.4%	115%	91.4%	49%	91.6%	150%	80.5%	113%	91.4%
CC(C)(C)c1cnc(CSc2cnc(NC(=O)C3CCNCC3)s2)o1 + Cc1cc(SCc2sc(-c3ccc(C(F)(F)F)c(F)c3)nc2C)ccc1OCC(=O)O [GW0742] (first compound 0.01 µM, partner dose 2 µM)	169%	105%	380%	116%	136%	21.5%	82%	165%	82.7%
NC(=O)Nc1cc(-c2cccc(F)c2)sc1C(=O)N[C@H]1CCCNC1 + O=C(Oc1ccc([N+](=O)[O-])cc1)N1CCC(C(O)(c2ccc3c(c2)OCO3)c2ccc3c(c2)OCO3)CC1 [JZL184] (first compound 0.02 µM, partner dose 1 µM)	46.4%	58.1%	41.9%	52.2%	167%	49.1%	29.9%	122%	136%
C/C(O)=C(\C#N)C(=O)Nc1cc(Br)ccc1Br + O=C1NC(=O)/C(=C/c2ccc(-c3ccc(F)cc3O)o2)S1 [AS252424] (first compound 2 µM, partner dose 1 µM)	54.3%	139%	39.5%	78.5%	98.6%	42.7%	84.8%	79.8%	98.1%
C[C@]12O[C@H](C[C@]1(O)CO)n1c3ccccc3c3c4c(c5c6ccccc6n2c5c31)CNC4=O [Lestaurtinib] + O=C1NC(=O)/C(=C/c2ccc(-c3ccc(F)cc3O)o2)S1 [AS252424] (first compound 0.004 µM, partner dose 1 µM)	92.5%	158%	127%	100%	111%	220%	130%	251%	69.8%
C[C@]12O[C@H](C[C@]1(O)CO)n1c3ccccc3c3c4c(c5c6ccccc6n2c5c31)CNC4=O [Lestaurtinib] + CN(C)S(=O)(=O)c1ccc2c(c1)/C(=C/c1cc3c([nH]1)CCCC3)C(=O)N2 [SU6656] (first compound 0.004 µM, partner dose 0.4 µM)	142%	131%	45.7%	24.5%	29.9%	151%	130%	147%	185%
CN(NC(=O)CC(=O)NN(C)C(=S)c1ccccc1)C(=S)c1ccccc1 + O=C(Oc1ccc([N+](=O)[O-])cc1)N1CCC(C(O)(c2ccc3c(c2)OCO3)c2ccc3c(c2)OCO3)CC1 [JZL184] (first compound 0.006 µM, partner dose 1 µM)	145%	76.8%	126%	78.4%	155%	68.5%	414%	127%	42.3%
COC(=O)c1sccc1S(=O)(=O)Nc1ccc(Nc2ccccc2)cc1OC + O=C(Oc1ccc([N+](=O)[O-])cc1)N1CCC(C(O)(c2ccc3c(c2)OCO3)c2ccc3c(c2)OCO3)CC1 [JZL184] (first compound 1 µM, partner dose 1 µM)	78.7%	77.2%	40.6%	57.8%	112%	52.2%	113%	62.8%	92%
Cc1ccc(NC(=O)c2cccc(N(C)C)c2)cc1NC(=O)c1ccc(O)cc1 + O=C(Oc1ccc([N+](=O)[O-])cc1)N1CCC(C(O)(c2ccc3c(c2)OCO3)c2ccc3c(c2)OCO3)CC1 [JZL184] (first compound 2 µM, partner dose 1 µM)	107%	230%	94.5%	53.3%	64.7%	62.1%	38.8%	52.5%	40.8%
OCCn1cc(-c2cnc3nnn(Cc4ccc5ncccc5c4)c3n2)cn1 + C/C(O)=C(\C#N)C(=O)Nc1cc(Br)ccc1Br [LFM-A13] (first compound 1 µM, partner dose 2 µM)	138%	47.5%	39.6%	55.6%	100%	12.7%	63.1%	87.1%	47%
NCC(=O)Nc1ccc(-n2nc(C(F)(F)F)cc2-c2ccc3c(ccc4ccccc43)c2)cc1 + Cc1cc(SCc2sc(-c3ccc(C(F)(F)F)c(F)c3)nc2C)ccc1OCC(=O)O [GW0742] (first compound 1 µM, partner dose 2 µM)	106%	583%	73.2%	39.1%	196%	69.4%	117%	53.5%	117%
C[As](C)SC[C@H](NC(=O)CC[C@H](N)C(=O)O)C(=O)NCC(=O)O [Darinaparsin] + O=c1cc(-c2cccc3c2Sc2ccccc2S3)oc(N2CCOCC2)c1 [KU55933] (first compound 0.4 µM, partner dose 1 µM)	29.3%	74.4%	86%	104%	110%	188%	64.6%	83.1%	82.9%
COc1ccc(-c2ccc3c(N4CCOCC4)nc(N4C[C@@H](C)O[C@@H](C)C4)nc3n2)cc1CO + Cc1cc(SCc2sc(-c3ccc(C(F)(F)F)c(F)c3)nc2C)ccc1OCC(=O)O [GW0742] (first compound 0.02 µM, partner dose 2 µM)	41.1%	164%	88%	44.1%	56.7%	44.2%	82.9%	119%	104%
CC(C)(C)c1cnc(CSc2cnc(NC(=O)C3CCNCC3)s2)o1 + C/C(O)=C(\C#N)C(=O)Nc1cc(Br)ccc1Br [LFM-A13] (first compound 0.01 µM, partner dose 2 µM)	160%	73%	567%	288%	139%	159%	62.7%	144%	249%
COc1cc2ncnc(Nc3ccc(Oc4ccccc4)cc3)c2cc1OC + O=C(Oc1ccc([N+](=O)[O-])cc1)N1CCC(C(O)(c2ccc3c(c2)OCO3)c2ccc3c(c2)OCO3)CC1 [JZL184] (first compound 2 µM, partner dose 1 µM)	127%	91.4%	40.4%	37.6%	142%	148%	179%	85.1%	52.7%

Rewritten comma-delimited: part of the list above
Structure (SMILES),cleaved PARP positive nuclei fraction [1],cleaved PARP positive nuclei fraction [2],cleaved PARP positive nuclei fraction [3],cleaved PARP positive nuclei fraction [4],cleaved PARP positive nuclei fraction [5],cleaved PARP positive nuclei fraction [6],cleaved PARP positive nuclei fraction [7],cleaved PARP positive nuclei fraction [8],cleaved PARP positive nuclei fraction [9]
"NCC(=O)Nc1ccc(-n2nc(C(F)(F)F)cc2-c2ccc3c(ccc4ccccc43)c2)cc1 + Cc1cc(SCc2sc(-c3ccc(C(F)(F)F)c(F)c3)nc2C)ccc1OCC(=O)O [GW0742] (first compound 1 µM, partner dose 2 µM)",106%,583%,73.2%,39.1%,196%,69.4%,117%,53.5%,117%
"C[As](C)SC[C@H](NC(=O)CC[C@H](N)C(=O)O)C(=O)NCC(=O)O [Darinaparsin] + O=c1cc(-c2cccc3c2Sc2ccccc2S3)oc(N2CCOCC2)c1 [KU55933] (first compound 0.4 µM, partner dose 1 µM)",29.3%,74.4%,86%,104%,110%,188%,64.6%,83.1%,82.9%
